The values below come from the supplement of paper PMC12872613.

Counter-ions that a name gives are not always drawn. This is one part of the list. Rule as the data show it: active = 0.7 or more and inactive = the rest. Single values are uncertain, as repeats are few or missing.

In this assay the test system is MiaPaCa-2 CLSA-25. The experiment in a line: cell death relative to DMSO vehicle (fraction); higher = more cytotoxic. To be noted: 5 µM; treatment time 48 h; medium cystine 25 µM.

`CCCCCCOC(=O)NC(=N)c1ccc(NCc2nc3cc(C(=O)N(CCC(=O)OCC)c4ccccn4)ccc3n2C)cc1` [Dabigatran etexilate]: the cell death is inactive: 0.0455. As for `O=C(Nc1ccccc1-c1cn2c(CN3CCNCC3)csc2n1)c1cnc2ccccc2n1` [SRT1720 hydrochloride], the figure is active: 0.934; as for `O=C(c1cc(S(=O)(=O)Nc2ccccc2F)c(F)cc1Cl)N1CCN2CCC[C@@H]2C1`, inactive: 0.128. Then `O=C([O-])C(Cl)Cl.[Na+]` [Sodium Dichloroacetate], with inactive: 0.204; and `C/C1=C/CC[C@H](C)C(=O)C[C@@H](C(C)C)C(=O)C1` [Curdione], with inactive: 0.17; and `C[C@@H](C(=O)O)c1ccc(-c2ccccc2)c(F)c1` [R-flurbiprofen], with inactive: 0.0976. Turning to `O=C1S/C(=C\c2ccc(OCc3cccc(B(O)O)c3)cc2)C(=O)N1Cc1ccc(F)cc1`, the cell death is active: 0.814.
